Structures can show the parent of a compound that is named as a salt.
Assay: Taste threshold concentration for fasudil
Format: in vivo, human
Settings: for Palatability: scale of 1-10, 10 best; for Palatability / After Taste / Bitterness: second taste-tester; for After Taste / Bitterness: scale of 1-10, 10 worst; for taste threshold concentration: for most people

Question: For `O=S(=O)(c1cccc2cnccc12)N1CCCNCC1` [Fasudil, hexahydro-1-(5-isoquinolinesulfonyl)-1H-1,4-diazepine monohydrochloride hemihydrate], which Palatability (0.1 mg/mL) is on record?
Answer: 5

Question: What about the “After Taste” value (0.1 mg/mL) of the same molecule?
Answer: 1

Question: And the Bitterness (0.1 mg/mL)?
Answer: 1

Question: What about the Palatability (0.5 mg/mL) of the same molecule?
Answer: 2

Question: And the “After Taste” value (0.5 mg/mL)?
Answer: 5

Question: What about the Bitterness (0.5 mg/mL) of the same molecule?
Answer: 7

Question: And the taste threshold concentration?
Answer: 0.3 to 0.4 mg/mL

Question: And the taste threshold concentration (super and normal tasters)?
Answer: 0.1 to 0.4 mg/mL

Source: patent publication US20250134906A1 (Woolsey Pharmaceuticals, Inc., priority 2022, published 2025)
